{"sequences": {"note": "Chains of the proteins cited; added tags and fusions are not shown. Lines headed by an entry give the natural chain unless they say otherwise; changes in a name come on top.", "UniProt Q9HCP0": "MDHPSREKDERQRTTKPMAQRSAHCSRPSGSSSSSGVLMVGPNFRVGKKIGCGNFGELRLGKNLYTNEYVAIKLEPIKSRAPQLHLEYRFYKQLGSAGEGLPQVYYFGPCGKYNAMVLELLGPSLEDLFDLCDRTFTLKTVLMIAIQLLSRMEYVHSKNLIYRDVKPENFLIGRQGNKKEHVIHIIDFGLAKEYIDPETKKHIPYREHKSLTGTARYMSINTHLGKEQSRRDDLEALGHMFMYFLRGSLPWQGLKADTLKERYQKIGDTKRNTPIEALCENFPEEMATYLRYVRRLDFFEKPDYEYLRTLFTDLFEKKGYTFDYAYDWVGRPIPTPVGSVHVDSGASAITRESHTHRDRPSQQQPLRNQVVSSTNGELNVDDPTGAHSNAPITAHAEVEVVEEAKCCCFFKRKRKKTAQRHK", "UniProt P68400": "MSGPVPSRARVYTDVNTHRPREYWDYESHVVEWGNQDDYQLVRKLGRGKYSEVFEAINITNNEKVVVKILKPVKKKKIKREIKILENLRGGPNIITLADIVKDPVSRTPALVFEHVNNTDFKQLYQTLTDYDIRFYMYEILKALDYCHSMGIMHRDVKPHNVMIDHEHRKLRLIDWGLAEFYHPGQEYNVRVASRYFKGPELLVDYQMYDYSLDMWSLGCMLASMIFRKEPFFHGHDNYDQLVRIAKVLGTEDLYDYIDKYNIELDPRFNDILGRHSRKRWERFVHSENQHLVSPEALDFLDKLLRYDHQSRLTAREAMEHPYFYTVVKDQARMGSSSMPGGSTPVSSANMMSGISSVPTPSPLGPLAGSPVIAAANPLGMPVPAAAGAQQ"}, "source": "paper PMC5996148", "assay_in_all_cases": "protein microarray (ProtoArray v5.0), streptavidin-Alexa Fluor 647", "conditions_in_all_cases": "3'-biotin; 20 mM Tris (pH 7.5), 5 mM MgCl2, 100 mM KCl, 0.1% Tween-20, A/T-rich and random oligonucleotide blockers; temperature not stated; high values mean tight binding", "key": {"COG8 (human)": {"tested_on": "COG8 (human)"}, "COMT (human)": {"tested_on": "COMT (human)"}, "COPZ1 (human)": {"tested_on": "COPZ1 (human)"}, "COX4I2 (human)": {"tested_on": "COX4I2 (human)"}, "COX4NB (human)": {"tested_on": "COX4NB (human)"}, "COX5B (human)": {"tested_on": "COX5B (human)"}, "CRABP2 (human)": {"tested_on": "CRABP2 (human)"}, "CRADD (human)": {"tested_on": "CRADD (human)"}, "CRLF3 (human)": {"tested_on": "CRLF3 (human)"}, "CRYAA (human)": {"tested_on": "CRYAA (human)"}, "CRYBA1 (human)": {"tested_on": "CRYBA1 (human)"}, "CSF1 (human)": {"tested_on": "CSF1 (human)"}, "CSNK1G1": {"biological_target": "CSNK1G1 (UniProt Q9HCP0)"}, "CSNK2A1": {"biological_target": "CSNK2A1 (UniProt P68400)"}, "CTBP1 (human)": {"tested_on": "CTBP1 (human)"}, "CTNNB1 (human)": {"tested_on": "CTNNB1 (human)"}, "CYB5B (human)": {"tested_on": "CYB5B (human)"}, "CYFIP2 (human)": {"tested_on": "CYFIP2 (human)"}, "CYP1A1": {"biological_target": "T1, CYP1A1 (UniProt P04798)", "T1 sequence": "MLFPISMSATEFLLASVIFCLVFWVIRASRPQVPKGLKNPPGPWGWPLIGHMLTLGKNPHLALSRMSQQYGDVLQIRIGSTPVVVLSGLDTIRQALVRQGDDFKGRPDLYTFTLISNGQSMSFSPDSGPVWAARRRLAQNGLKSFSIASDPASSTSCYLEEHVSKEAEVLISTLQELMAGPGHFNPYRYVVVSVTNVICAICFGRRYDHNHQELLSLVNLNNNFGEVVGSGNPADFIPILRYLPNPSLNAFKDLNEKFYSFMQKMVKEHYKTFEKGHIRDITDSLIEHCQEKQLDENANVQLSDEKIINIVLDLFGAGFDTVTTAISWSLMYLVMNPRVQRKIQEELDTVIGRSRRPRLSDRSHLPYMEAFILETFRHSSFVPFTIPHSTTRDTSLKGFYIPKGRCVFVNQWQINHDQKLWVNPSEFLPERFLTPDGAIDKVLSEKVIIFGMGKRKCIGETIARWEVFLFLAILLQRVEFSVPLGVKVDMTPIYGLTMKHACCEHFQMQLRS"}, "CYP20A1 (human)": {"tested_on": "CYP20A1 (human)"}}, "note": "Values joined by “and” are separate entries in the source; they are usually repeats but may differ in a detail not shown here. Equal values may be shown once. The list shows a part of the results. For some assays here: The source does not settle which construct or isoform was used."}
{"sequence": "GGGGACAGGGGTATGGGGAGGGG [G4-3 biotinylated (CtG)]", "values": [{"measurement": "binding signal", "setting": "COG8 (human)", "value": -0.342, "unit": "z-score"}, {"measurement": "binding signal", "setting": "COMT (human)", "value": -0.317, "unit": "z-score"}, {"measurement": "binding signal", "setting": "COPZ1 (human)", "value": -0.335, "unit": "z-score"}, {"measurement": "binding signal", "setting": "COX4I2 (human)", "value": -0.334, "unit": "z-score"}, {"measurement": "binding signal", "setting": "COX4NB (human)", "value": -0.309, "unit": "z-score"}, {"measurement": "binding signal", "setting": "COX5B (human)", "value": -0.33, "unit": "z-score"}, {"measurement": "binding signal", "setting": "CRABP2 (human)", "value": -0.306, "unit": "z-score"}, {"measurement": "binding signal", "setting": "CRADD (human)", "value": -0.336, "unit": "z-score"}, {"measurement": "binding signal", "setting": "CRLF3 (human)", "value": -0.335, "unit": "z-score"}, {"measurement": "binding signal", "setting": "CRYAA (human)", "value": -0.32, "unit": "z-score"}, {"measurement": "binding signal", "setting": "CRYBA1 (human)", "value": -0.328, "unit": "z-score"}, {"measurement": "binding signal", "setting": "CSF1 (human)", "value": -0.331, "unit": "z-score"}, {"measurement": "binding signal", "setting": "CSNK1G1", "value": 6.52, "unit": "z-score"}, {"measurement": "binding signal", "setting": "CSNK2A1", "value": 5.58, "unit": "z-score"}, {"measurement": "binding signal", "setting": "CTBP1 (human)", "value": "-0.325 z-score and -0.337 z-score"}, {"measurement": "binding signal", "setting": "CTNNB1 (human)", "value": -0.341, "unit": "z-score"}, {"measurement": "binding signal", "setting": "CYB5B (human)", "value": -0.313, "unit": "z-score"}, {"measurement": "binding signal", "setting": "CYFIP2 (human)", "value": -0.348, "unit": "z-score"}, {"measurement": "binding signal", "setting": "CYP1A1", "value": -0.322, "unit": "z-score"}, {"measurement": "binding signal", "setting": "CYP20A1 (human)", "value": -0.299, "unit": "z-score"}]}
